Our source for the TEAD-luciferase reporter activity values is the supplement of paper PMC10735217.

For this assay, the system named is HEK293A TEAD-LUC reporter. Briefly: TEAD-luciferase reporter activity (YAP activation), robust Z score vs plate; higher = stronger YAP/TEAD activation. The note with it: 24 h. For orientation: A reporter such as luciferase makes a cellular process visible.

Molecules are shown by their SMILES. Structures can show the parent of a compound that is named as a salt. The list shows a part of the results. Repeats in this data set agree poorly, so a single value says little.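 In a drug-repurposing library screen, luminescence reads luciferase driven by eight TEAD-binding elements, stably integrated into human kidney-derived cells. Compounds scoring over five robust Z scores above the plate mean are called hits.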

With `Cn1cccc1C(=O)C(C#N)C(=O)Nc1ccccc1` (configuration not stated) [Prinomide tromethamine], the TEAD-luciferase reporter activity was inactive: -1.84 (compound concentration: 200 nM), inactive: 0.00465 (compound concentration: 2 uM) and inactive: 2.25 (compound concentration: 10 uM).
For `COC(=O)COc1ccc(/C(C)=N/OCc2sc(-c3ccc(C(F)(F)F)cc3)nc2C)cc1C`, in that order: inactive: 0.313, inactive: -0.0428 and inactive: -0.312.
Turning to `OCC(O)COc1ccc(Cl)cc1` (configuration not stated), the TEAD-luciferase reporter activity by setting is: (compound concentration: 200 nM) inactive: -1.91; (compound concentration: 2 uM) inactive: -2.06; (compound concentration: 10 uM) inactive: 0.263.
For `CC[C@H](C)[C@H](N)C(=O)N1CCSC1` [Isoleucine-thiazolidide] the same measures were inactive: 4.77, inactive: 0.873 and inactive: 1.01.
For `C/C(=C\CNc1ncnc2[nH]cnc12)CO` [Zeatin], in that order: active: 7.48, inactive: -0.118 and inactive: 1.48.
For `CCOC(=O)CC(O)c1cccc2nc(CCc3ccccc3)[nH]c12` (configuration not stated), in that order: inactive: 3.18, inactive: -0.907 and inactive: 0.157.
As to `CC(O)Cn1cnc2c1c(=O)n(C)c(=O)n2C` (configuration not stated) [Proxyphylline], the TEAD-luciferase reporter activity is inactive: -0.769 (compound concentration: 200 nM) and inactive: 0.729 (compound concentration: 10 uM).
In the case of `CC(O)Cn1cnc2c1c(=O)n(C)c(=O)n2C` (configuration not stated), the TEAD-luciferase reporter activity (compound concentration: 2 uM) was inactive: 0.477.
Consider `CCC(C)N(CC(O)c1cccn1Cc1ccccc1Cl)C(C)CC` (configuration not stated), for which the TEAD-luciferase reporter activity was inactive: -0.573 (compound concentration: 200 nM), inactive: -0.495 (compound concentration: 2 uM) and inactive: 4.41 (compound concentration: 10 uM).
For `CS/C(=N/C#N)NCCCOc1cccc2cnccc12` the same measures were inactive: 0.234, inactive: 0.139 and inactive: -0.276.
With `Cn1cc(C(=O)O)c(=O)c2cc3cc(F)c(N4CCN(c5ccc(F)cc5)CC4)cc3nc21`, the TEAD-luciferase reporter activity by setting is: (compound concentration: 200 nM) inactive: -0.161; (compound concentration: 2 uM) inactive: -1.14; (compound concentration: 10 uM) inactive: -1.74.
For `NC(N)=NCc1ccc2c(c1)OCCO2` the same measures were inactive: -0.45, inactive: -1.05 and inactive: -0.424.
For `CC(=O)OCC(=O)[C@H]1CC[C@H]2[C@@H]3CCC4=CC(=O)CC[C@]4(C)[C@H]3CC[C@]12C` the same measures were inactive: -0.629, inactive: -1.92 and inactive: 1.16.
For `Cn1nc(-c2cccc(F)c2)n(C)c1=S` [Suritozole], in that order: inactive: 2.6, inactive: 2.04 and inactive: 3.3.
As to `N=C(N)NCCCC[C@@H]1NC(=O)CCSSC[C@@H](C(N)=O)NC(=O)[C@@H]2CCCN2C(=O)[C@H](Cc2c[nH]c3ccccc23)NC(=O)[C@H](CC(=O)O)NC(=O)CNC1=O` [eptifibatide], the TEAD-luciferase reporter activity runs as follows: (compound concentration: 200 nM) inactive: -1.32; (compound concentration: 2 uM) inactive: 2.07; (compound concentration: 10 uM) inactive: 2.55.
For `NC(=NC(=O)c1nc(Cl)c(N)nc1N)NCc1ccccc1` [Benzamil hydrochloride] the same measures were inactive: -0.255, inactive: -2.43 and inactive: -0.233.
For `CCc1cccc2c1c(O)c(C(=O)N(CC)c1ccccc1)c(=O)n2C` [Paquinimod], the TEAD-luciferase reporter activity reads like this: (compound concentration: 200 nM) inactive: -0.774; (compound concentration: 10 uM) inactive: 1.51.
For `CCN1CCCCC12Cc1ccccc1CN(C(C)=O)C2` (configuration not stated), in that order: inactive: 1.84 and inactive: 1.33.
As to `Cc1cn([C@H]2C=C[C@@H](CO)O2)c(=O)[nH]c1=O`, the TEAD-luciferase reporter activity is inactive: -0.694 (compound concentration: 200 nM) and inactive: 1.82 (compound concentration: 10 uM).
Turning to `Cc1cn([C@H]2C=C[C@@H](CO)O2)c(=O)[nH]c1=O` [stavudine], the TEAD-luciferase reporter activity (compound concentration: 2 uM) is inactive: -0.529.
On to `CC(C)=CCNc1ncnc2c1ncn2[C@@H]1O[C@H](CO)[C@@H](O)[C@H]1O`, for which the TEAD-luciferase reporter activity by setting is: (compound concentration: 200 nM) inactive: -1.25; (compound concentration: 2 uM) inactive: 1.44; (compound concentration: 10 uM) active: 8.3.
Consider `CCCc1ccc(NS(=O)(=O)Cc2ccccc2)c(=O)n1CC(=O)NCc1ccccc1C`, for which the TEAD-luciferase reporter activity (compound concentration: 200 nM) is inactive: -0.578, the TEAD-luciferase reporter activity (compound concentration: 2 uM) is inactive: -0.926 and the TEAD-luciferase reporter activity (compound concentration: 10 uM) was inactive: 1.3.
For `NC1CCN(c2nc3c(cc2F)c(=O)c(C=O)cn3-c2ccc(F)cc2F)C1` (configuration not stated) the same measures were inactive: 1.65, inactive: 0.401 and inactive: -0.436.
For `COc1ccc(C2=C(C(=O)O)[C@@H](c3ccc4c(c3)OCO4)Oc3ccc(OC(C)C)cc32)cc1` the same measures were inactive: -0.636, inactive: 0.396 and inactive: 0.0565.
Turning to `O=C(CCCl)NCc1ccccc1`, the TEAD-luciferase reporter activity is inactive: -0.579 (compound concentration: 200 nM), inactive: -0.716 (compound concentration: 2 uM) and inactive: -0.75 (compound concentration: 10 uM).
For `O=C(Nc1ccc(Oc2ccc(Cl)cc2)c(Cl)c1)c1cc(I)cc(I)c1O` the same measures were inactive: -0.68, inactive: -1.92 and inactive: -1.05.
Turning to `CNC(=O)c1ccccc1Nc1cc(Nc2ccc(N3CCOCC3)cc2OC)ncc1C(F)(F)F`, the TEAD-luciferase reporter activity is, setting by setting: (compound concentration: 200 nM) inactive: -0.997; (compound concentration: 2 uM) inactive: -2.79; (compound concentration: 10 uM) inactive: -2.85.
For `C/C=C/C[C@@H](C)[C@@H](O)[C@H]1C(=O)N[C@@H](CC)C(=O)N(C)[C@H](C)C(=O)N(CC)[C@@H](C(C)C)C(=O)N[C@@H](C(C)C)C(=O)N(C)[C@@H](CC(C)C)C(=O)N[C@@H](C)C(=O)N[C@H](C)C(=O)N(C)[C@@H](CC(C)C)C(=O)N(C)[C@@H](CC(C)C)C(=O)N(C)[C@@H](C(C)C)C(=O)N1C` [Alisporivir], in that order: inactive: -1.48, inactive: -1.12 and inactive: 0.538.
For `CCCC(CCC)C(N)=O` [Valpromide] the same measures were inactive: 3.74, inactive: -0.138 and inactive: 0.978.
For `COc1cc2c(cc1OC)C(C)N(S(=O)(=O)c1cn(C)c(C)n1)CC2` (configuration not stated) the same measures were inactive: -0.525, inactive: -1.09 and inactive: 1.07.
In the case of `COc1cc(C(C)=O)ccc1OCCN1CCOCC1`, the TEAD-luciferase reporter activity (compound concentration: 200 nM) is inactive: -1.24, the TEAD-luciferase reporter activity (compound concentration: 2 uM) was inactive: -0.863 and the TEAD-luciferase reporter activity (compound concentration: 10 uM) is inactive: 3.9.
For `COC(=O)C(CC(C)C)NC(=O)C(N)CC(C)C` (configuration not stated) [Leucylleucine methyl ester] the same measures were inactive: 1.14, inactive: -0.831 and inactive: -0.747.
For `CC[C@@H]1C[C@]1(NC(=O)[C@@H]1C[C@@H]2CN1C(=O)[C@H](C(C)(C)C)NC(=O)OCC(C)(C)CCCCc1cccc3c1CN(C3)C(=O)O2)C(=O)NS(=O)(=O)C1CC1` [Vaniprevir], in that order: inactive: 1.91, inactive: -1.67 and inactive: 1.44.
For `C=CCNc1nc(NCC=C)nc(N2CCC(NCC(c3ccc(F)cc3)c3ccc(F)cc3)CC2)n1` the same measures were inactive: -2.34, inactive: -0.851 and inactive: -1.02.
Consider `C[C@H]1CC2C3C[C@H](F)C4=CC(=O)C=CC4(C)[C@@]3(F)C(O)CC2(C)[C@@]1(O)C(=O)CCl` (some centres not stated), for which the TEAD-luciferase reporter activity by setting is: (compound concentration: 200 nM) inactive: -0.514; (compound concentration: 2 uM) inactive: 3.36; (compound concentration: 10 uM) inactive: 1.11.
